{"source": "patent US7041652B1", "about": "“Ascorbate-isoquercetin compositions” (Merck Patent GmbH, priority 1999, dated 2006)", "origin": "cited, not measured here", "tested_on": "ex vivo rabbit heart", "conditions": "Chanh et al. 1986; cited from earlier work", "note": "For at least one compound, name, drawing or mass did not settle the structure."}
{"smiles": "O=c1c(O[C@@H]2O[C@H](CO)[C@@H](O)[C@H](O)[C@H]2O)c(-c2ccc(O)c(O)c2)oc2cc(O)cc(O)c12", "note": "[isoquercetin, quercetin-3-O-glucoside]", "values": [{"measurement": "biosynthesis and release of prostaglandin-like substances", "result": "inhibits the biosynthesis and release of prostaglandin-like substances"}]}
